Molecules are shown by their SMILES. Some entries of the source have several records that differ or are many. Only these are listed. An entry can have further records. The values listed for one entry appear to be repeats on other runs, samples or individuals.

Broadly, the clearance is the volume of plasma or blood freed of the substance per unit of time. A lower clearance goes with inefficient removal.

The data set can be described thus: In vivo mouse pharmacokinetic profiling.

Consider `Cc1nn(C)cc1-c1nc2c(-c3cnn(Cc4ccccc4)c3)c(Cl)cnc2[nH]1` [Compound 7a], for which the clearance is 0.012 L/h and 10.0 mL/min/kg; the volume of distribution was 0.01 L and 0.5 L/kg.

For the molecule `Cc1nn(C)cc1-c1nc2c(-c3cnn(Cc4ccc(Cl)cc4)c3)c(Cl)cnc2[nH]1`, the clearance is 0.016 L/h and 13.3 mL/min/kg; the volume of distribution is 0.02 L and 1.0 L/kg.

The values are drawn from publication PMC4577729, “7-(Pyrazol-4-yl)-3H-imidazo[4,5-b]pyridine-based derivatives for kinase inhibition: Co-crystallisation studies with Aurora-A reveal distinct differences in the orientation of the pyrazole N1-substituent” (Bioorganic & Medicinal Chemistry Letters, 2015).
